Results deposited as PubChem BioAssay AID1671195 (Yale University, 2021)

- Assay: 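Genes whose knockdown alters LDL uptake in liver cancer cells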 (primary screen)
- Cell system: human Huh7 hepatoma cells
- Knock-down reagent: siRNA pool against human genes, 18 nM
- Duration: about 2 to 2.5 days of knockdown, then 8 h LDL uptake
- Treatment: DiI-labelled LDL at 30 µg/ml for 8 h, in lipoprotein-deficient serum medium
- Measurement: 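Fluorescent LDL signal imaged in cells, scaled to the plate median, robust z-score for each replicate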
- Reading the numbers: robust z-score: higher = more LDL uptake after knockdown
- Call rule: 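a gene counts as active if at least two replicate z-scores exceed ±2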
Shown is a random part of about 22,000 reagents. In the full data, about 1,510 (6.9%) got an active call. 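Active includes knockdowns raising or lowering LDL uptake; positive z-scores mean more uptake, negative mean less.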 A number with no mark means an inactive call. The numbers tell different reagents against one gene apart.

The first 3 entries, to show the layout:
target gene | reagent | robust z-score, replicate 1 | robust z-score, replicate 2 | robust z-score, replicate 3
TIMM17B (translocase of inner mitochondrial membrane 17B) | 1 | 1.49 | 0.305 | 1.75
POLR1HASP (POLR1H antisense, pseudogene) | 1 | 0.583 | 0.847 | 1.62
ITIH1 (inter-alpha-trypsin inhibitor heavy chain 1) | 1 | -0.384 | -0.96 | -0.504

Main list, repeating the preview:
target gene | reagent | robust z-score, replicate 1 | robust z-score, replicate 2 | robust z-score, replicate 3
TIMM17B (translocase of inner mitochondrial membrane 17B) | 1 | 1.49 | 0.305 | 1.75
POLR1HASP (POLR1H antisense, pseudogene) | 1 | 0.583 | 0.847 | 1.62
ITIH1 (inter-alpha-trypsin inhibitor heavy chain 1) | 1 | -0.384 | -0.96 | -0.504
ATL1 (atlastin GTPase 1) | 1 | -1.43 | -1.68 | -1.22
ZDHHC15 (zDHHC palmitoyltransferase 15) | 1 | 0.521 | 0.514 | 0.924
LOC440979 (retired record) | 1 | 0.625 | 1.66 | 1.22
DDAH2 (DDAH family member 2, ADMA-independent) | 1 | -0.76 | -1.15 | -0.938
CNOT1 (CCR4-NOT transcription complex subunit 1) | 1 | -0.963 | 0.514 | -1.83
CD300LD-AS1 (CD300LD antisense RNA 1) | 1 | 1.83 | 1.84 | 0.988
PANK3 (pantothenate kinase 3) | 1 | 0.0769 | 0.0471 | 0.62
BTG2 (BTG anti-proliferation factor 2) | 1 | -2.07 | -1.6 | -1.63
MRAS (muscle RAS oncogene homolog) | 1 | 0.151 | -1.54 | -0.677
NOX3 (NADPH oxidase 3) | 1 | -1.47 | -0.746 | -0.962
CFAP263 (cilia and flagella associated protein 263) | 1 | -1.74 | -0.263 | 0.763
NPY (neuropeptide Y) | 1 | -0.379 | 0.579 | 0.0901
FCRLB (Fc receptor like B) | 1 | 0.729 | -0.303 | -1.1
GALNT11 (polypeptide N-acetylgalactosaminyltransferase 11) | 1 | 0.706 | 1.14 | 0.5
SF3A1 (splicing factor 3a subunit 1) | 1 | -1.47 | -1.38 | -1.15
PLEKHO2 (pleckstrin homology domain containing O2) | 1 | 3.27 (active) | 2.11 | 3.02
ICA1L (islet cell autoantigen 1 like) | 1 | 0.57 | 0.829 | 0.117
ICA1L (islet cell autoantigen 1 like) | 2 | -0.152 | 0.202 | -0.155
GSKIP (GSK3B interacting protein) | 1 | 0.312 | -0.147 | -0.109
MAP4K5 (mitogen-activated protein kinase kinase kinase kinase 5) | 1 | -1.38 (active) | -2.07 | -2.49
SLC7A9 | 1 | -2.66 (active) | -2.7 | -2.52
RGS19 (regulator of G protein signaling 19) | 1 | -0.026 | 0.109 | 0.0715
COA7 (cytochrome c oxidase assembly factor 7) | 1 | -1.25 | -1.33 | -1.2
TEX14BP (testis expressed 14B, pseudogene) | 1 | -0.253 | -0.27 | 0.267
ZNF71 (zinc finger protein 71) | 1 | 0.418 | 0.212 | 0.145
